Results are given in words; binding and its absence hold for the method and conditions named. Binding seen in cells or lysates may run through a third protein. Some entries that bind do so weakly or less than the wild type.

The target in the assay is T1, JNK-interacting protein 3 (JIP3) (mouse (endogenous in bone marrow-derived eosinophils of B6 mice)) (UniProt Q9ESN9).
T1 sequence: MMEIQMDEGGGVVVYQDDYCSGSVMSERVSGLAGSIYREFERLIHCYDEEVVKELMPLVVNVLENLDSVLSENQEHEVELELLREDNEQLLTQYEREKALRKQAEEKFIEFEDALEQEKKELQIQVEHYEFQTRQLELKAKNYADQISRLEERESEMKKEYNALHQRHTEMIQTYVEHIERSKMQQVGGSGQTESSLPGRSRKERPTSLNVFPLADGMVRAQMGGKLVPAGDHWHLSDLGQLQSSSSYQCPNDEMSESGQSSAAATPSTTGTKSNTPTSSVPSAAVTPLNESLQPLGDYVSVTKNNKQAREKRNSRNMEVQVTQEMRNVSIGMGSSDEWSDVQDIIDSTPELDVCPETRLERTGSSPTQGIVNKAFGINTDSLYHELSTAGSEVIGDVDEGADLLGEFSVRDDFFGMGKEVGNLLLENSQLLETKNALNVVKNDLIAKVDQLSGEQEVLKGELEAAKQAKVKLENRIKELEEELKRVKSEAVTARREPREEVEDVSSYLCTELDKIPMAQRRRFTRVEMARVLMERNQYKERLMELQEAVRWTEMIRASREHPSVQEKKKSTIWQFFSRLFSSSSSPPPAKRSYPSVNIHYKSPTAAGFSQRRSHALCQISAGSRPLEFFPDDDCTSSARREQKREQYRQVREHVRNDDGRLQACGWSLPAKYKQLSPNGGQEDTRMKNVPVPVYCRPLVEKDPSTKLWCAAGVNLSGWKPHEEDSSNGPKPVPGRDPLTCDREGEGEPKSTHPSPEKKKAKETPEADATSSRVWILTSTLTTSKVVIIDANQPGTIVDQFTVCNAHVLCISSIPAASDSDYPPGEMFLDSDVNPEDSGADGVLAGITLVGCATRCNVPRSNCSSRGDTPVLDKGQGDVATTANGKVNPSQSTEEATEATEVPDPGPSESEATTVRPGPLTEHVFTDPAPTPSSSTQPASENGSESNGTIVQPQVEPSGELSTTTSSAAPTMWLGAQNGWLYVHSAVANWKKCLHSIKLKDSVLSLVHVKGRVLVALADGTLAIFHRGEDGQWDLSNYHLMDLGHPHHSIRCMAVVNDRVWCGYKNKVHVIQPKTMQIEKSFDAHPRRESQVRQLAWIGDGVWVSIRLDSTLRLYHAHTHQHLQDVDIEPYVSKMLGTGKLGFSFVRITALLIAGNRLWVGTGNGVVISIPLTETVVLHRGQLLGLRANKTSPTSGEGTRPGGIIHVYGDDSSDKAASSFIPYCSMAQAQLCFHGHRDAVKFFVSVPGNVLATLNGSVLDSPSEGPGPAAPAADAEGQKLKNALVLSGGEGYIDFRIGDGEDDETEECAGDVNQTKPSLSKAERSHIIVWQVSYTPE
Nature of the assay: co-IP; lysates of B6 and Slpi-/- BMEos (5 x 10^6 cells; 1.0% NP-40, 50 mM HEPES pH 7.4, 150 mM NaCl) at the steady state, precleaned, precipitated with mouse anti-JIP3 (F-6) or mouse IgG1 isotype control and Dynabeads protein G; blotted for JIP3 and SLPI.

B1: secretory leukoprotease inhibitor (SLPI) (protein, UniProt P97430 26-131)
chain: GKNDAIKIGACPAKKPAQCLKLEKPQCRTDWECPGKQRCCQDACGSKCVNPVPIRKPVWRKPGRCVKTQARCMMLNPPNVCQRDGQCDGKYKCCEGICGKVCLPPM
Consider B1, for which the binding result was “binds”.

The record behind these values is PMC5693852.
